Reference: publication PMC4463457
Results are given in words; binding and its absence hold for the method and conditions named. Binding seen in cells or lysates may run through a third protein. Some binding calls cover weakened binding; strength is not graded here.

The chains behind the UniProt entries cited, without tags or fusion partners. Where a name states a change or a piece, a line headed by the entry shows the natural chain unless it says otherwise. A line that says so, or that is headed by a name, gives the form on record, which may keep a tag or linker.
UniProt P35462: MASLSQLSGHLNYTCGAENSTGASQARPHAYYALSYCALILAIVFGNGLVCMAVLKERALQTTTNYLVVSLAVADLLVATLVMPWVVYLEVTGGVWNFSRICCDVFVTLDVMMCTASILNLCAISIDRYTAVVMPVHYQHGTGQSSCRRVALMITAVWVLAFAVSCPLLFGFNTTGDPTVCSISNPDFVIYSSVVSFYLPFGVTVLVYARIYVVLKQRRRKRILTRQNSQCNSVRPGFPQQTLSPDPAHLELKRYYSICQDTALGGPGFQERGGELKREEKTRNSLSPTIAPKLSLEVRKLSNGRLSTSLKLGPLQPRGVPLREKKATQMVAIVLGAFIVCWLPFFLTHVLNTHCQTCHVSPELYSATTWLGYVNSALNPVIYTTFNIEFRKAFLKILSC
Arg-210,Tyr-212,Val-213,Lys-216 VSV-SNAP-hD3 (P35462, form named): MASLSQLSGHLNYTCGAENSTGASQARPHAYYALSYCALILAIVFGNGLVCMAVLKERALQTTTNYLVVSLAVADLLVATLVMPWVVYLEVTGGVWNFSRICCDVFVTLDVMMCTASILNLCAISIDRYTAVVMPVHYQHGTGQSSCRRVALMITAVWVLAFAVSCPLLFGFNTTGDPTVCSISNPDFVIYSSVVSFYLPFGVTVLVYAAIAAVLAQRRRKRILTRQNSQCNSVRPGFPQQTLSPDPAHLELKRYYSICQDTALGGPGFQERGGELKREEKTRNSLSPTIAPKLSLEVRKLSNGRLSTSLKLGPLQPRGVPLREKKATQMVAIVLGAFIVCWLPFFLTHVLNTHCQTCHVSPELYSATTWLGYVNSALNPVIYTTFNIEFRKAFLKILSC
Asp-187,Ile-190,Val-194,Leu-199 VSV-SNAP-hD3 (P35462, form named): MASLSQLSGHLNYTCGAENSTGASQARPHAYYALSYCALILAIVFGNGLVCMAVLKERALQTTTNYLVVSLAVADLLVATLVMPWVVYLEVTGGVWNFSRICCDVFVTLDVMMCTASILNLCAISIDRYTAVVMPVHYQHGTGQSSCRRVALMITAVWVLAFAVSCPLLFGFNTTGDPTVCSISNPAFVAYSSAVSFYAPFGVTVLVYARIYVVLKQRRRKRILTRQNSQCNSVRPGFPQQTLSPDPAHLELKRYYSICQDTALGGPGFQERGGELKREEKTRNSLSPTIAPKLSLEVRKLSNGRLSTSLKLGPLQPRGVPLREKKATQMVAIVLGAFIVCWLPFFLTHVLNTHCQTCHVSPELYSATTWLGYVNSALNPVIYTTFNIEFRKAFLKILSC
Tyr-31,Tyr-32,Leu-34,Ser-35 VSV-SNAP-hD3 (P35462, form named): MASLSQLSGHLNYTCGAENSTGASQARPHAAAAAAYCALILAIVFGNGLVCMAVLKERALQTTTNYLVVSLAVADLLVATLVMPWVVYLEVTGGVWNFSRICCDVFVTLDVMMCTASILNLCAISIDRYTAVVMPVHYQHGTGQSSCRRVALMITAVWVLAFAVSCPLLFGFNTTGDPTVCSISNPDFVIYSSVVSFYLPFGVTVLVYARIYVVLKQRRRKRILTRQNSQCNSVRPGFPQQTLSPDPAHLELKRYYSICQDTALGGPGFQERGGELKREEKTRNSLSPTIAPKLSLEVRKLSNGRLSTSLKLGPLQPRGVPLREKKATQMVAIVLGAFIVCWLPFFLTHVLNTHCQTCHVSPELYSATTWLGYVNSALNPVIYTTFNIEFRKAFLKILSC

Assays:
Experiment in all cases: FRET or BRET; htrFRET (Tag-Lite) on intact HEK293T cells transfected with varying amounts of plasmid; SNAP-Lumi4-Tb 10 nM and SNAP-Red 100 nM, 1 h at 37 °C; signal at 665 nm (energy transfer) plotted against signal at 620 nm (cell surface expression), slope of the linear regression
[1] = biological target: Arg-210,Tyr-212,Val-213,Lys-216 VSV-SNAP-hD3 (human) (UniProt P35462)
[2] = biological target: Asp-187,Ile-190,Val-194,Leu-199 VSV-SNAP-hD3 (human) (UniProt P35462)
[3] = biological target: Tyr-31,Tyr-32,Leu-34,Ser-35 VSV-SNAP-hD3 (human) (UniProt P35462)

For “Arg-210,Tyr-212,Val-213,Lys-216 VSV-SNAP-hD3 (from UniProt P35462 1-400) (receptor)”, the binding [1] was “binds”.
With “Asp-187,Ile-190,Val-194,Leu-199 VSV-SNAP-hD3 (from UniProt P35462 1-400) (receptor)” the binding [2] was “binds”.
With “Tyr-31,Tyr-32,Leu-34,Ser-35 VSV-SNAP-hD3 (from UniProt P35462 1-400) (receptor)” the binding [3] was “binds”.
